Measurements reported in publication PMC10954715.
No constants are given. Whether binding was seen depends on the method and setting. In cells and extracts the contact can be indirect. Some binding calls cover weakened binding; strength is not graded here.

Protein sequences, listed by entry. Tags and fused reporters are not part of them. Lines headed by an entry give the natural chain unless they say otherwise; changes in a name come on top. Residues count along the entry.
UniProt Q96LA8: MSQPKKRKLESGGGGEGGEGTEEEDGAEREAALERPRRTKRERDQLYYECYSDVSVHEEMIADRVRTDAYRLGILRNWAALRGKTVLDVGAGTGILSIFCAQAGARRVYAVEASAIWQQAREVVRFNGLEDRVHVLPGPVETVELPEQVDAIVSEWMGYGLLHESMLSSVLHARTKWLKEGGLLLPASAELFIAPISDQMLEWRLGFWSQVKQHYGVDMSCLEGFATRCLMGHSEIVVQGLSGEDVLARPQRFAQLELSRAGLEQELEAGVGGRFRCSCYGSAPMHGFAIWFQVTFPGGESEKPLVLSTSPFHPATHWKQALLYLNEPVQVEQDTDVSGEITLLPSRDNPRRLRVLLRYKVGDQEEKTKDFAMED
PPARγ1 (P37231, residues 29-505): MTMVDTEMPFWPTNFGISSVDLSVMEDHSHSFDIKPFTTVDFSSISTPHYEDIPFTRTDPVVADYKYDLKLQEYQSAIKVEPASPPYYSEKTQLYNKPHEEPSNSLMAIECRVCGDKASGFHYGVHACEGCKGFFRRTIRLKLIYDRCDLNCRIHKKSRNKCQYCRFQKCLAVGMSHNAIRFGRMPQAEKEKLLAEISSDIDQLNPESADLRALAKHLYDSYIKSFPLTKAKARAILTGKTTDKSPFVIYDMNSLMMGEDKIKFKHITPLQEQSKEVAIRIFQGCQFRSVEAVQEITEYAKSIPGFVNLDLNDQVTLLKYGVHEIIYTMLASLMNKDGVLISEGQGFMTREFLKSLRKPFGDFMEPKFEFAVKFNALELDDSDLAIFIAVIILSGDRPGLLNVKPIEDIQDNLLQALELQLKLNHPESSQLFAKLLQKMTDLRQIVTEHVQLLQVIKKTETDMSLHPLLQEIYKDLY

How the values were obtained:
Flag-PRMT6 = Flag-PRMT6 (UniProt Q96LA8); test: co-IP; HEK293T cells transfected with Flag-PRMT6 and PPARγ1 or PPARγ2; 600 µg whole cell lysate (50 mM Tris-HCl pH 7.5, 150 mM NaCl, 1% IGEPAL, 1 mM EDTA; Benzonase treated) with anti-DYKDDDDK magnetic agarose beads, 2 h, 4 °C; blot with anti-PPARγ antibody
GST-PRMT6 = GST-PRMT6 (UniProt Q96LA8); test: pull-down; GST-PRMT6 on beads incubated with 10 µl in vitro translated 35S-labelled PPARγ2, 3 h, 4 °C; SDS-PAGE and phosphorimaging; only the target purified

binding (Flag-PRMT6) | binding (GST-PRMT6) | Substance
binds |  | PPARγ1 (from UniProt P37231-2 1-477)
binds |  | PPARγ2 (from UniProt P37231-1 1-505)
 | binds | in vitro translated 35S-labelled PPARγ2 (from UniProt P37231-1 1-505)
